Measurements from paper doi:10.1101/2025.11.14.688546, “Nuclear-import receptors remodel the dilute phase to suppress phase transitions of RNA-binding proteins with prion-like domains” (bioRxiv, 2025).
These are yes or no findings as the source states them, for the method shown. Some results given as binding are weak or reduced against the parent protein; the word gives no strength.

Sequences of proteins named here, by UniProt entry; tags and fusion partners are left off. A change or cut given only in a name is not applied to a line headed by its entry. A line that says so, or that is headed by a name, gives the form on record, which may keep a tag or linker.
hnRNPA2 (P22626, form named): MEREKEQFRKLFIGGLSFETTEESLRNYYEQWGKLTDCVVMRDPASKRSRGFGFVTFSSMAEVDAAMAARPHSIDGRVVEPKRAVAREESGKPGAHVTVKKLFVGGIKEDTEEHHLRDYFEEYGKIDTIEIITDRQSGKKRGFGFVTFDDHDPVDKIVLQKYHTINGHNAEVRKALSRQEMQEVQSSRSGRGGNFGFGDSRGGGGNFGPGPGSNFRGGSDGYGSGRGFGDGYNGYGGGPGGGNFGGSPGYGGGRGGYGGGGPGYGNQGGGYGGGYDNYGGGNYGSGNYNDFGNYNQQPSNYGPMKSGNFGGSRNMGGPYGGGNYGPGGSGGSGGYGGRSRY
UniProt Q92973: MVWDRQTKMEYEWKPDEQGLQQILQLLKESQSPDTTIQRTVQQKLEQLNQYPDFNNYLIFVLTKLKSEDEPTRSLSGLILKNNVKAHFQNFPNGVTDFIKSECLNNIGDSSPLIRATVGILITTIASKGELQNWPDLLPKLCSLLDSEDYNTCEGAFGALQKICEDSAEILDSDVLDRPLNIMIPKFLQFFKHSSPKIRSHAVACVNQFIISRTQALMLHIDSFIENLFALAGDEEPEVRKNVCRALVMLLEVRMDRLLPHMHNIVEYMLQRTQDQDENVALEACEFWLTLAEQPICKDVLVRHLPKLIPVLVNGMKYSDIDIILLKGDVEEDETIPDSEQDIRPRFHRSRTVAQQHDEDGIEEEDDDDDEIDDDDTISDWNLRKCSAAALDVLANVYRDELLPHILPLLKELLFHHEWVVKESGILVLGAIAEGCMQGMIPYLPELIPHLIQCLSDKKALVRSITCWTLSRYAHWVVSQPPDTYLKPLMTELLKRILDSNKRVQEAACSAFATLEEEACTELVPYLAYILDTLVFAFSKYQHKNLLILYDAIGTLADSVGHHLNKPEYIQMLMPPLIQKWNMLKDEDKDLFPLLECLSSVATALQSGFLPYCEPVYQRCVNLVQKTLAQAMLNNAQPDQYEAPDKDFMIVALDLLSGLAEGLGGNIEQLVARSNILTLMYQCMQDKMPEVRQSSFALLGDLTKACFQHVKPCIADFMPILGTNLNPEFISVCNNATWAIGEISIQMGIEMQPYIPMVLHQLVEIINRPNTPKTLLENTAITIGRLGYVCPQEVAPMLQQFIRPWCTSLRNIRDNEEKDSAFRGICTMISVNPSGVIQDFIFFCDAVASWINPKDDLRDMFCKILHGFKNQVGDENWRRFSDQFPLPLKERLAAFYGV

Target: hnRNPA2 (UniProt P22626)
Assay: microfluidic resistive pulse sensing (MRPS); fixed concentration of the RNA-binding protein above csat (2 μM FUS or FUS^P525L, 4 μM hnRNPA2) with increasing Kapβ2; MBP cleaved in situ by TEV, 1.5–2 h at room temperature; same buffers as for the proteins alone; both purified

For “Karyopherin-β2 (from UniProt Q92973 1-898)”, the binding was “binds”.
